Measurements: publication PMC4239114
No constants are given. Whether binding was seen depends on the method and setting. For part of these data: Binding seen in cells or lysates may run through a third protein. Some results given as binding are weak or reduced against the parent protein; the word gives no strength. For part of these data: Where a sequence is shown, tags or fusion partners need not be part of it.

T1: GAL4 BD-Myc-NleE (enteropathogenic E. coli (EPEC 2348/69)) (UniProt B7UI22)
T1 sequence: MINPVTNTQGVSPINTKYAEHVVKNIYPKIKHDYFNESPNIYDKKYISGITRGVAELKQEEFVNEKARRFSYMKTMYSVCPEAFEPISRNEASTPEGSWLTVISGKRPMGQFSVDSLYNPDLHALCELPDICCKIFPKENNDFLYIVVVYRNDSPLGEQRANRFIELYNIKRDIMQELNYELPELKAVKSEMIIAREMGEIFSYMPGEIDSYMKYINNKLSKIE

T2: NleE expressed in 293T cells (co-immunoprecipitation) (enteropathogenic E. coli (EPEC 2348/69)) (UniProt B7UI22)
T2 sequence: T1 sequence

B1: TAB3 (GAL4 AD fusion) (protein, UniProt Q8N5C8 1-712)
chain: MAQSSPQLDIQVLHDLRQRFPEIPEGVVSQCMLQNNNNLEACCRALSQESSKYLYMEYHSPDDNRMNRNRLLHINLGIHSPSSYHPGDGAQLNGGRTLVHSSSDGHIDPQHAAGKQLICLVQEPHSAPAVVAATPNYNPFFMNEQNRSAATPPSQPPQQPSSMQTGMNPSAMQGPSPPPPPPSYMHIPRYSTNPITVTVSQNLPSGQTVPRALQILPQIPSNLYGSPGSIYIRQTSQSSSGRQTPQSTPWQSSPQGPVPHYSQRPLPVYPHQQNYQPSQYSPKQQQIPQSAYHSPPPSQCPSPFSSPQHQVQPSQLGHIFMPPSPSTTPPHPYQQGPPSYQKQGSHSVAYLPYTASSLSKGSMKKIEITVEPSQRPGTAINRSPSPISNQPSPRNQHSLYTATTPPSSSPSRGISSQPKPPFSVNPVYITYTQPTGPSCTPSPSPRVIPNPTTVFKITVGRATTENLLNLVDQEERSAAPEPIQPISVIPGSGGEKGSHKYQRSSSSGSDDYAYTQALLLHQRARMERLAKQLKLEKEELERLKSEVNGMEHDLMQRRLRRVSCTTAIPTPEEMTRLRSMNRQLQINVDCTLKEVDLLQSRGNFDPKAMNNFYDNIEPGPVVPPKPSKKDSSDPCTIERKARRISVTSKVQADIHDTQAAAADEHRTGSTQSPRTQPRDEDYEGAPWNCDSCTFLNHPALNRCEQCEMPRYT

What was measured:
[1] = biological target: T1, GAL4 BD-Myc-NleE (enteropathogenic E. coli (EPEC 2348/69)); experiment: two-hybrid; yeast strain AH109 transformed with plasmid combinations (bait+prey): GAL4 BD-Myc-NleE with GAL4 AD-fused TAB3 truncations
[2] = biological target: T2, NleE expressed in 293T cells (co-immunoprecipitation) (enteropathogenic E. coli (EPEC 2348/69)); experiment: co-IP; transfected 293T cells; anti-Flag immunoprecipitates and total lysates immunoblotted

Molecule	binding [1]	binding [2]
TAB3 residues 52-194 (GAL4 AD fusion) (from UniProt Q8N5C8 52-194) (domain or fragment)	binds	–
TAB3 residues 52-194 expressed in 293T cells (from UniProt Q8N5C8 52-194) (domain or fragment)	–	binds
B1	binds	–
